## Percent effect of library compounds

A: 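Whole-parasite assay of Trypanosoma brucei over 72 hours; the read-out is not stated. Compounds at 30 µM. The record gives no direction; compounds that gave an IC50 in retests scored well above the rest, so higher reads as stronger inhibition. Values scatter widely below zero; nearly all retest evidence comes from the higher of the two concentrations used. Size under these conditions: about 64,000 compounds, about 940 of them at 50% or above in at least one test.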
B: 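Assay of Toxoplasma gondii numbers, read through their beta-galactosidase reporter with a colour substrate. Compounds at 10 µM. Higher reads as fewer parasites (inferred from which compounds were picked for retests). About 67,000 compounds were tested under these conditions; 0.38% (about 260) showed 50% or more at least once.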
C: 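Cell assay of Leishmania donovani living inside macrophages; the read-out is not stated. Tested at 30 µM. Direction is inferred from retests: higher values go with stronger inhibition. Size under these conditions: about 69,000 compounds, about 1,000 of them at 50% or above in at least one test.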

Values are the deposited “Percent Effect”, in %.
How 0% and 100% were set is not recorded. Most values in the screen are low, and negative values occur.
This is an unselected part of the compounds tested.
Two or more numbers in one place are separate tests of the same structure; such repeats can differ widely.
A dash means the value is not listed here; it may have been measured.

Compound | A | B | C
CNC(=O)[C@@H](c1ccccc1OC)N1CCC[C@H]1C(=O)NC(C)(C)C.Cl | 37.81 | 3.202 | 9.114
Cc1c[nH]nc1C1CN(c2cnccn2)CCO1 (stereo not shown) | 12.1 | 9.466 | 24.67
COCCOc1ccc(NC(=O)N2CCCC2c2cc(C)no2)cn1 (stereo not shown) | 16.91 | -5.729 | 16.96
CC(C)[C@@H]1CN(c2ncc(F)cn2)C[C@H]1NC(=O)N(C)C | -7.587 | -3.332 | 17.16
O=C(c1cccnc1)N1CCCC(Cc2nccs2)C1 (stereo not shown) | -5.101 | -4.112 | 19.17 and 15.43
COC1CCN(c2ccc(NC(=O)C3CC3)cc2C(F)(F)F)CC1 | -0.4425 | 1.124 | -20.1
CC(C)(C)n1ncc2c1NC(=O)CC2c1ccc(OCC(N)=O)cc1 (stereo not shown) | 43.03 | 3.738 | 22.68
CCNc1ncc(C(=O)NCc2ccc(F)c(C(F)(F)F)c2)cn1 | -11.08 | -17.03 | -4.793
CC(Sc1nnc(C2CC2)n1CC(N)=O)c1ccc(F)c(Cl)c1 (stereo not shown) | -13.9 | -26.64 | 12.48
COc1cc(-c2nc3c([nH]2)CCCNC3=O)ccc1OC(C)C | -40.15 | 22.87 | -26.97
NC(=O)N1CC[C@H](O)[C@@H]1Cc1ccccc1 | -0.8967 | -8.944 | 8.088
Cn1c(C(=O)N2CCC(CC(N)=O)CC2)c(Cl)c2ccccc21 | -26.2 | -3.756 | 34.08
CC(C)Nc1ncnc2c1CCN(C(=O)N1CCOCC1)CC2 | -15.58 | -12.06 | 11.66
CC(C)NC(=O)C1CN(C(=O)COc2ccccc2)CC12CCOCC2 (stereo not shown) | 19.46 | -10.06 | 29.39
Cc1ccc(Cn2cc(Br)c(NS(C)(=O)=O)n2)cc1 | -22.03 | 20 | -49.23
O=C(O)C(F)(F)F.[H][C@@]12CCN(Cc3scnc3C)C[C@]1(C(=O)NC1CC1)CCO2 | -66.89 | -0.6772 | 19.16 and 3.852
Cc1nn(C)cc1C(=O)N1CCC(CSc2ccccc2)C1 (stereo not shown) | -556.5 | -6.321 | -37.89
OCCOc1nc(-c2ccccc2Cl)no1 | -211.5 | -1.314 | 20.66
CN1CCCc2cc(NC(=O)N3CCOC(C(N)=O)C3)ccc21 (stereo not shown) | 27.94 | -35.23 | 16.23
O=C(O)c1nnn(Cc2cccc(C(F)(F)F)c2)c1-c1ccncc1 | -8.714 | 0.574 | 1.822
CN(C)c1ncccc1CNC(=O)NCc1cccs1 | - | -7.225 | 13.78
CC(Cn1cccn1)NC(=O)N(C)Cc1cnn(C)c1 (stereo not shown) | -27.81 | -21.24 | 28.99
Cc1n[nH]c(C)c1CN1CCC(c2cc(C(C)C)n[nH]2)CC1 | -28.16 | -1.161 | 21.34
CCN(CCCN1CCOCC1)C(=O)c1cnn(CC)c1 | -56.61 | 4.088 | 5.806
COCC(=O)NCc1ccc(-c2ncncc2C(=O)N(C)C)cc1 | -6.056 | 0.8631 | -4.379
COc1ccc(-c2nc(CN3CCCC(OC)C3)c(C)o2)c(F)c1 (stereo not shown) | 99.32 | -5.428 | 76
Cc1noc(NC(=O)c2ccccc2)n1 | 22.26 | -16.22 | 16.65
Cc1ncnc2c1CCN(C(=O)c1cccnc1)CC2 | -12.55 | -2.851 | 19.01
CSCC(=O)NC1(c2cccc(Cl)c2)CC1 | 0.6212 | 5.036 | 16.31
Cc1cc2cc(CNC3CCN(S(C)(=O)=O)CC3)oc2cc1C | -21.74 | 4.435 | 23.07
O=C(O)C(F)(F)F.[H][C@]12CCN(Cc3c(C)noc3C)[C@@]1([H])CC[C@@H](COCC(C)C)O2 | 11.61 | 2.34 | 7.144
CCc1nnc(NC(=O)NCCN(C)C(=O)OC(C)(C)C)s1 | -13.04 | 6.885 | 10.19
Cc1nc(Nc2nccs2)cc(C2CN(C(C)C)C2)n1 | 5.847 | -8.744 | 37.37
CCc1nnc(C(C)N2CCC(NC(=O)C3CCCCC3)CC2)o1 (stereo not shown) | 1.179 | -5.263 | 13.75
CN(C)S(=O)(=O)N1CCCC1c1cccc(-n2ccnc2)n1 (stereo not shown) | -6.601 | -12.32 | -10.42 and -10.39
CN(C)C(=O)CN1CCC2(CCCN(Cc3ccsc3)C2)C1=O (stereo not shown) | -14.24 | -1.113 | 49.54
CC(c1ccon1)N(C)S(=O)(=O)NCc1ccccc1 (stereo not shown) | 2.915 | -13.07 | 11.17
Cc1cc(CN2CCN(C(=O)NCc3ccco3)CC2)no1 | -32.11 | 10.95 | -62.86
Cc1ncsc1CCN(C)C(=O)CN1C(=O)OC[C@@H]1c1ccccc1 | -52.52 | 2.575 | -5.535
CC(C)(C)c1noc(CCCC(=O)NCC2CCS(=O)(=O)C2)n1 (stereo not shown) | 9.702 | -2.559 | 19.12
CCN(CC)C(=O)COc1ccnc2cc(OC)ccc12 | -11.48 | -27.87 | -22.47
COc1cc(CN(Cc2ccccn2)CC(C)C)cc2c1OCO2 | 12.24 | 5.864 | 22.87
O=S(=O)(NCC1CCN(c2cnccn2)CC1)c1ccc(F)c(Cl)c1 | 42.03 | 8.164 | 11.32
O=C(O)C(F)(F)F.[H][C@@]12COC[C@]1([H])[C@@H](OCC1CCOCC1)CN2Cc1ccc(OC)cc1 | -67.6 | 2.081 | 22.84
COC1CCN(S(=O)(=O)NCC2COc3ccccc3C2)CC1 (stereo not shown) | -7.678 | 19.99 | 3.792

Some entries from above, unchanged:

Result for CC(C)Nc1ncnc2c1CCN(C(=O)N1CCOCC1)CC2 was A: -15.58%; B: -12.06%; C: 11.66%.
Result for Cc1nc(Nc2nccs2)cc(C2CN(C(C)C)C2)n1 was A: 5.847%; B: -8.744%; C: 37.37%.
Result for CCN(CCCN1CCOCC1)C(=O)c1cnn(CC)c1 was A: -56.61%; B: 4.088%; C: 5.806%.
Result for Cc1cc(CN2CCN(C(=O)NCc3ccco3)CC2)no1 was A: -32.11%; B: 10.95%; C: -62.86%.

Measurements from “University of Dundee, Small-Polar-MMV Screening Library” (2021), ChEMBL document CHEMBL3988442.